Measurements taken from article PMC5173098.
Results are given in words; binding and its absence hold for the method and conditions named. Binding seen in cells or lysates may run through a third protein. Some binding calls cover weakened binding; strength is not graded here. Where a sequence is shown, tags or fusion partners need not be part of it.

By UniProt entry, the sequences of proteins in these tests, tags left out.
UniProt Q13489: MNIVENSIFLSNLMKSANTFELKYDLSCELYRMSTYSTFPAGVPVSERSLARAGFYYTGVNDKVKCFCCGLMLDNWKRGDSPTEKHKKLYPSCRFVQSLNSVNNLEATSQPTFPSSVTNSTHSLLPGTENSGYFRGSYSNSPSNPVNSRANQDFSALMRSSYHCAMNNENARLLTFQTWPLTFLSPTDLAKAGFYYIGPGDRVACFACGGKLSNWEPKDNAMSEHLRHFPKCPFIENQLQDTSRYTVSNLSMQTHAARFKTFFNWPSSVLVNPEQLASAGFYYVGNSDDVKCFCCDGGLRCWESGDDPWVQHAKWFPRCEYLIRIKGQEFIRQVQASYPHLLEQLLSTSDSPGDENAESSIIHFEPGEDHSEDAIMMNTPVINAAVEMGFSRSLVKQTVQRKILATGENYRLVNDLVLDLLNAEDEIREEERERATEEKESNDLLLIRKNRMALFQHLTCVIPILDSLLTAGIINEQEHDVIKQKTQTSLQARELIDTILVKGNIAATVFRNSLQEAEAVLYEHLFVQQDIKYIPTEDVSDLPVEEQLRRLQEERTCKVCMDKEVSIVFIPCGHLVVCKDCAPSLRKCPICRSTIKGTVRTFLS

Legend:
[1] = biological target: T1, Myc-tagged Pellino-1 (human) (UniProt Q96FA3); test: co-IP; HCT116 cells transfected with Myc-Pellino-1 and Flag-cIAP2, 48 hours; 2 mg lysate in 50 mM Tris-HCl pH 7.5, 150 mM NaCl, 1% NP40, 1 mM EDTA; IP with anti-Myc 2 hours at 4°C, blot anti-Flag
T1 sequence: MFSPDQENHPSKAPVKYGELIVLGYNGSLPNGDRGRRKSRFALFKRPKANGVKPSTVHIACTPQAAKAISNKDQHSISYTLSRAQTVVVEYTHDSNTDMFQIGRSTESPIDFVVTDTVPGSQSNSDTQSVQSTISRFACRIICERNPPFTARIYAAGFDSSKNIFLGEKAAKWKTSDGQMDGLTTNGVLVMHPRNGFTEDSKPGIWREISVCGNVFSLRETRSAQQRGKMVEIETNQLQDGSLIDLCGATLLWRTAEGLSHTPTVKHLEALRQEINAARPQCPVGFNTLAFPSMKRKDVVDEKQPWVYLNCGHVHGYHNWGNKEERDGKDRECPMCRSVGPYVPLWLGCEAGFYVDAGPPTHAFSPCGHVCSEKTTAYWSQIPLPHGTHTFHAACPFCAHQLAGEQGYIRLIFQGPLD

[2] = biological target: T2, TAP-tagged Pellino-1 (human) (UniProt Q96FA3); test: pull-down; lysates of 293T cells stably expressing TAP (Strep-Flag)-Pellino-1 in NETN buffer (100 mM NaCl, 1 mM EDTA, 20 mM Tris-HCl pH 8.0, 0.5% Nonidet P-40) incubated with streptavidin-Sepharose beads 8 hours at 4°C; bound proteins immunoblotted with anti-cIAP1, anti-cIAP2, anti-Flag
T2 sequence: T1 sequence

[3] = biological target: T3, GST-Pellino-1 fusion protein (human) (UniProt Q96FA3); test: pull-down; GST-Pellino-1 absorbed onto glutathione Sepharose beads, incubated with whole-cell extracts from asynchronized A549 cells; immunoblot; only the target purified
T3 sequence: T1 sequence

## Flag-cIAP2 (from UniProt Q13489 1-604)
[1]
  binding: binds

## cIAP2 (endogenous, 293T cells) (from UniProt Q13489 1-604)
[2]
  binding: binds

## cIAP2 (endogenous, A549 cells) (from UniProt Q13489 1-604)
[3]
  binding: binds
